These are yes or no findings as the source states them, for the method shown. Some results given as binding are weak or reduced against the parent protein; the word gives no strength.
Assays:
[1] = target: rh NT*-Bri2 BRICHOS D148N (human) (UniProt Q9Y287); experiment: SEC
[2] = target: rh NT*-Bri2 BRICHOS T206W (human) (UniProt Q9Y287); experiment: SEC

| binding [1] | binding [2] | Substance |
| --- | --- | --- |
| binds |  | rh NT*-Bri2 BRICHOS D148N (from UniProt Q9Y287 113-231) (domain or fragment) |
|  | binds | rh NT*-Bri2 BRICHOS T206W (from UniProt Q9Y287 113-231) (domain or fragment) |
